# Some entries repeat one wording, which the source may state once for all of them.
# Assay: Heat-sensitive transfer recording: Status A reflection density of solid density portion (transferring property)
# Conditions: Status A reflection density at solid density (100% dot density); thermal head 0.25 W/dot
row,SMILES,Transferring property
1,Cc1nn2nc(C(C)(C)C)c(N=Nc3c(C#N)c(C(C)(C)C)nn3C)c2n1C [Dye (1)],A (A (very good): reflection density of 1.8 or more)
2,Cc1nn(C)c2c(N=Nc3c(C#N)c(C(C)(C)C)nn3C)c(C(C)(C)C)nn12 [Dye (7)],A (A (very good): reflection density of 1.8 or more)
3,CCn1nc(C(C)(C)C)c(C#N)c1/N=N/c1c(C(C)(C)C)nn2c(C)nn(CC)c12 [Dye (8)],A (A (very good): reflection density of 1.8 or more)
4,CCc1nn(C)c2c(/N=N/c3c(C#N)c(C(C)(C)C)nn3C)c(C(C)(C)C)nn12 [Dye (9)],A (A (very good): reflection density of 1.8 or more)
5,CC(C)c1nn(C)c2c(/N=N/c3c(C#N)c(C(C)(C)C)nn3C)c(C(C)(C)C)nn12 [Dye (10)],A (A (very good): reflection density of 1.8 or more)
6,Cc1nn(C)c2c(/N=N/c3nc4ccccc4n3C)c(C(C)(C)C)nn12 [Dye (14)],A (A (very good): reflection density of 1.8 or more)
7,CCSc1nnc(/N=N/c2c(C(C)(C)C)nn3c(C(C)C)nn(CC)c23)s1 [Dye (23)],A (A (very good): reflection density of 1.8 or more)
8,CCSc1nnc(/N=N/c2c(C(C)(C)C)nn3nc(C(C)C)n(C)c23)s1 [Dye (28)],A (A (very good): reflection density of 1.8 or more)
9,"CCSc1nnc(N=Nc2c(C(C)(C)C)nn3c(C(C)C)n[nH]c23)s1 [Dye for Comparison 1, reference compound]",C (C (probably acceptable): reflection density of 1.0 or more but less than 1.6)
10,"CCN(CCOc1ccc(C2CCCCC2)cc1)c1ccc(C=C(C#N)C#N)cc1 [Dye for Comparison 3, reference compound]",A (A (very good): reflection density of 1.8 or more)
